Drawing on US20250282849A1, this text covers binding for one molecule.

The experiment deals with T1, Human GPR116 with a C terminal FLAG tag, stably overexpressed in HEK293A or HEK293T cells (human) (UniProt Q8IZF2).
T1 sequence (looked up): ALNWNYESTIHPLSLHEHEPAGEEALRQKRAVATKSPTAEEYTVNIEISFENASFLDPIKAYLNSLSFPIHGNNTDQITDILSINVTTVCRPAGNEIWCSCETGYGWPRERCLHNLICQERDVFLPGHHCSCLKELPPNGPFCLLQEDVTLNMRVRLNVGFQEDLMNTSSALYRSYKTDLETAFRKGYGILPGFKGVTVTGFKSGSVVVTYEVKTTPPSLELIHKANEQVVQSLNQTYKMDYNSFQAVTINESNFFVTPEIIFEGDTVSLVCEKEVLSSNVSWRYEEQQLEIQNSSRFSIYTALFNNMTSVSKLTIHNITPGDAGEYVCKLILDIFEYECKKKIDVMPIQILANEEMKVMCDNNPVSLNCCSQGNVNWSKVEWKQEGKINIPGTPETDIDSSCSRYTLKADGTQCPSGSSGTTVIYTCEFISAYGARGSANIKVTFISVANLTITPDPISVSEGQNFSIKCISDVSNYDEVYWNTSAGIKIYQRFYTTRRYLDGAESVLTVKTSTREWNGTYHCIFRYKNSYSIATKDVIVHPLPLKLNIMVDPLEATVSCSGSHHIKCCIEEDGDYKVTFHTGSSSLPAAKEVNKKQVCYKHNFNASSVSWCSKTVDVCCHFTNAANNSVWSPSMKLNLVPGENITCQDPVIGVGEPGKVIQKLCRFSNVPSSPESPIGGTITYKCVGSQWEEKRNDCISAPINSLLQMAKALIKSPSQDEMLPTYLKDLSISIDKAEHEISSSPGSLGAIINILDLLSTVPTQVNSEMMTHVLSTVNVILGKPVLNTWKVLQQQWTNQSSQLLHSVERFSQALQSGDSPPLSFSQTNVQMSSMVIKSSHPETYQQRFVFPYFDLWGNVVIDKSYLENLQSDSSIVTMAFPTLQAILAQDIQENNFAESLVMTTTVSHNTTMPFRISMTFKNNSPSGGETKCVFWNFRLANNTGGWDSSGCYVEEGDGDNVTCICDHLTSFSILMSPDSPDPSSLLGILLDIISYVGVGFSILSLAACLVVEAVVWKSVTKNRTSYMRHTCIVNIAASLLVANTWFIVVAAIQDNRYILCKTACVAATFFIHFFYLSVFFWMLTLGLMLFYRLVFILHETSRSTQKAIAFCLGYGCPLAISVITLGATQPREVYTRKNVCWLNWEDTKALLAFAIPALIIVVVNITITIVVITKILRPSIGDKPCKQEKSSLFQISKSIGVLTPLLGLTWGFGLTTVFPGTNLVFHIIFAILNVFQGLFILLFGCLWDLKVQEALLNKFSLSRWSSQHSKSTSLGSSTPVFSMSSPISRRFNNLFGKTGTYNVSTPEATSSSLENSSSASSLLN
Briefly: flow cytometry competition on HEK293T GPR116 OE cells; excess untagged sFNDC4 against FcsFNDC4. In general terms: In flow cytometry, cells or beads pass a laser one at a time.

No constants are given. Whether binding was seen depends on the method and setting. Some entries that bind do so weakly or less than the wild type. Sequences can lack the tags named with a protein.

B1: Untagged FNDC4 (aa40-160, UniProtKB Q3TR08 Mouse FNDC4), non Fc fused (ligand, UniProt Q3TR08 40-160, looked up)
chain: ADRPPSPVNVTVTHLRANSATVSWDVPEGNIVIGYSISQQRQNGPGQRVIREVNTTTRACALWGLAEDSDYTVQVRSIGLRGESPPGPRVHFRTLKGSDRLPSNSSSPGDITVEGLDGERP
As to B1, the binding entry is “binds”.
